Assay results reported in US20260042849A1, “PROTEASE-CLEAVABLE MOIETIES AND METHODS OF USE THEREOF” (CytomX Therapeutics, Inc., priority 2022, published 2026).
At least one read-out could not be matched to a standard name with certainty. Some of these results come from one statement about several compounds together.

Chains of the proteins cited; added tags and fusions are not shown. Residues count along the entry.
UniProt P14780, 107-707 limits assumed: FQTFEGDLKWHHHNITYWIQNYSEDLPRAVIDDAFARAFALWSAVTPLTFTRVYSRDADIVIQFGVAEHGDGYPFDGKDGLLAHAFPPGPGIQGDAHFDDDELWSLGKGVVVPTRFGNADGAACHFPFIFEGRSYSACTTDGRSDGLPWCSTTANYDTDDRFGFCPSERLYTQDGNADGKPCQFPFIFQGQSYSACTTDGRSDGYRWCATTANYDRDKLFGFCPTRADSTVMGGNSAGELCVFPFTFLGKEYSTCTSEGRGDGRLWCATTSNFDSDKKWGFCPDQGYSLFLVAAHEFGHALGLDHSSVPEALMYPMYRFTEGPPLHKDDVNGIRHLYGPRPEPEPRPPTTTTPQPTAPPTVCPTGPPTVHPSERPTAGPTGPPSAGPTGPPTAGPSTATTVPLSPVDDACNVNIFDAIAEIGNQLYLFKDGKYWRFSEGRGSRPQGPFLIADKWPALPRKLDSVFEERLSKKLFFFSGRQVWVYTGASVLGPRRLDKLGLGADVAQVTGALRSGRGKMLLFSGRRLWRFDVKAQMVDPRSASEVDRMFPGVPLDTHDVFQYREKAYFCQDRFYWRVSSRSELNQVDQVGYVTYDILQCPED

Tests used:
Type in all cases: biochemical
MT-SP1 = molecular target: T1, MT-SP1 (Homo sapiens, UniProt Q9Y5Y6); test: Cleavability kinetics (kcat/KM) of CMs in activatable antibodies; parameters: purchased R&D Systems 3946-SEB; conditions: CM in activatable antibody format
T1 sequence (Q9Y5Y6 615-855 limits assumed): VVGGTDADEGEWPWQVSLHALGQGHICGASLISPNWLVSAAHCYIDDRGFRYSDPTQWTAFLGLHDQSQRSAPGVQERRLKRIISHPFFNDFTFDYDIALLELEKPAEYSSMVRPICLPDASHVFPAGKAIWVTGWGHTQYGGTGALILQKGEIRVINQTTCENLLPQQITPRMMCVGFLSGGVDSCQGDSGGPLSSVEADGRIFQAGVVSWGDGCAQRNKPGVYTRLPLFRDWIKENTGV

MMP2 = molecular target: T2, MMP2 (Homo sapiens, UniProt P08253); test: Internally quenched peptide probe cleavage assay (Example 7); conditions: 25° C. (FIG. 4A)
T2 sequence (P08253 110-660): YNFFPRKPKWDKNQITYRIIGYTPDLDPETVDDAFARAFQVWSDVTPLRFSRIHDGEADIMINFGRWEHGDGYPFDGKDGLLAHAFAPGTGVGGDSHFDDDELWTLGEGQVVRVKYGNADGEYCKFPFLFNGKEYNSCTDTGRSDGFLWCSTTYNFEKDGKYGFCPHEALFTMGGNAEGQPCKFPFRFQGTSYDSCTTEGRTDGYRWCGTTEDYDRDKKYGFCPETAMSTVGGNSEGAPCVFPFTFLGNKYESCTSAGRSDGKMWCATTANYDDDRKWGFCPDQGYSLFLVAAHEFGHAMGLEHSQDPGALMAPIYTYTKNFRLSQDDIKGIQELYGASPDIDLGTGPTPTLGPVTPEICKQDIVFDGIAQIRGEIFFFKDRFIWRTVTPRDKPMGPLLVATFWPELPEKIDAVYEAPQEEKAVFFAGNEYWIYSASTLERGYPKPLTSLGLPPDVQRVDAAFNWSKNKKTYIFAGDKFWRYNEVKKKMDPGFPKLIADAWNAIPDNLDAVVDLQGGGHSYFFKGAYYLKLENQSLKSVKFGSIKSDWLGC

MMP9 = MMP9 (Homo sapiens, UniProt P14780); test: as above; conditions: 25° C. (FIG. 4A)
MMP14 = MMP14 (Homo sapiens, UniProt P50281); test: as above; conditions: 25° C. (FIG. 4A)

Substance	kcat/KM MT-SP1 (MT-SP1)	kcat/KM with MMP2 (MMP2)	kcat/KM with MMP9 (MMP9)	kcat/KM with MMP14 (MMP14)
ISSGLLSGRSDNH [CM 2001, reference compound]	1600 M⁻¹ s⁻¹			
PEGL (internally quenched probe (fluorophore/quencher)) [CM 7056, tested as internally quenched peptide probe]		greater than 5×10^2 M^−1 s^−1	greater than 5×10^2 M^−1 s^−1	greater than 5×10^2 M^−1 s^−1
PFGL (internally quenched probe (fluorophore/quencher)) [CM 7049, tested as internally quenched peptide probe]		greater than 5×10^2 M^−1 s^−1	greater than 5×10^2 M^−1 s^−1	greater than 5×10^2 M^−1 s^−1
PYGL [CM 7047, also tested as internally quenched peptide probe]		greater than 5×10^2 M^−1 s^−1	greater than 5×10^2 M^−1 s^−1	greater than 5×10^2 M^−1 s^−1
